{"source": "paper PMC11078746", "about": "(Nature, 2024)", "key": {"[1]": {"tested_on": "HCT116 TP53 null xenograft", "test": "MSI xenograft model efficacy", "assay_type": "in vivo", "conditions": "HCT116 p53 null, 60 mpk, single mouse, 60 mg/kg", "method": "(§1) All animal studies were conducted in accordance with ethics and procedures covered by permit BS-2275 and BS-1975 issued by the Kantonales Veterinäramt Basel-Stadt and in strict adherence to guidelines of the Eidgenössisches Tierschutzgesetz and the Eidgenössische Tierschutzverordnung, Switzerland. All animal studies were approved by the internal ethics committee. All animals had access to food and water ad libitum and were identified with transponders. They were housed in a specific-pathogen-free facility in IVC racks under a 12 h–12 h light–dark cycle. To establish cell-line-derived xenograft models, 6–7-week-old female athymic nude (Crl:NU(NCr)-Foxn1^nu) or SCID-BEIGE (CB17.Cg-PrkdcscidLystbg-J/Crl) mice from Charles River were engrafted subcutaneously with 5 million tumour cells in HBSS (H6648, Sigma-Aldrich). For SNU-407, Lovo, IM95, RL95.2, Ishikawa and IGROV-1, the cells were concentrated in 50% Matrigel (354234, Corning). Patient-derived xenografts were induced and expanded by transplantation as previously described. […] For the efficacy experiment, mice were randomized into groups (n = 5–6) for a mean tumour size of 100–150 mm^3. […] Blood samples were collected on day 7 and 91. […] Tumour responses are reported with the measures of tumour volumes from the treatment start. […] Animals were randomized (n = 3) and tumour samples were collected at 0, 1, 4, 8 and 24 h on the first day and then collected 4 h after the last treatment on day 3, 8, 10, 14 (including a 24 h timepoint), 17 and 21. Tumours were excised, weighed, either frozen in liquid nitrogen and cryogenic dry pulverized with the CryoPrep system (model CP-02, Covaris) or processed to FFPE after fixation. […] On day 12, blood samples were collected for PK analysis. On the last day (3 h after the last treatment), tumours were excised, weighed, frozen in liquid nitrogen and cryogenic dry pulverized for PD analysis."}, "HCT116 TP53 WT xenograft": {"tested_on": "HCT116 TP53 WT xenograft", "test": "MSI xenograft model efficacy", "assay_type": "in vivo", "conditions": "60 mpk, 60 mg/kg", "method": "as §1"}, "SW48 xenografts": {"tested_on": "SW48 xenografts", "test": "SW48 cell-derived xenograft efficacy, HRO761 orally once daily", "assay_type": "in vivo, mouse", "method": "as §1"}}, "note": "Where “and” joins values, the source holds several entries; their conditions need not be identical. Identical values can stand only once. This continues a long series; more values of the same kind are listed elsewhere."}
{"smiles": "CCc1c(N2CCN(C(=O)c3ncnc(C)c3O)CC2)c(=O)n2nc(C3=CCOCC3)nc2n1CC(=O)Nc1ccc(C(F)(F)F)cc1Cl", "note": "[HRO761]", "values": [{"measurement": "Tumour volume (TVol)", "setting": "[1]; day 7", "result": "240.34 mm3 and 270.16 mm3"}, {"measurement": "Tumour volume (TVol)", "setting": "[1]; day 10", "result": "89.52 mm3 and 288.86 mm3 and 81.72 mm3 and 135.51 mm3 and 171.62 mm3 and 236.68 mm3"}, {"measurement": "Tumour volume (TVol)", "setting": "HCT116 TP53 WT xenograft; day 7, single mouse", "result": "161.18 mm3 and 348.98 mm3"}, {"measurement": "Tumour volume (TVol)", "setting": "HCT116 TP53 WT xenograft; day 10, single mouse", "result": "74.12 mm3 and 353.50 mm3 and 171.88 mm3 and 344.19 mm3 and 134.73 mm3 and 348.18 mm3"}, {"measurement": "TVol, individual mouse", "setting": "SW48 xenografts; HRO761 20mg/kg, day 0 post 1st dose, 20 mg/kg", "result": "91.4 mm3 and 133.99 mm3 and 129.12 mm3 and 209.89 mm3 and 178.46 mm3"}, {"measurement": "TVol, individual mouse", "setting": "SW48 xenografts; HRO761 20mg/kg, day 3 post 1st dose, 20 mg/kg", "result": "109.33 mm3 and 145.87 mm3 and 142.14 mm3 and 232.83 mm3 and 230.79 mm3"}, {"measurement": "TVol, individual mouse", "setting": "SW48 xenografts; HRO761 20mg/kg, day 7 post 1st dose, 20 mg/kg", "result": "169.31 mm3 and 145.26 mm3 and 155.37 mm3 and 364.75 mm3 and 235.61 mm3"}, {"measurement": "TVol, individual mouse", "setting": "SW48 xenografts; HRO761 20mg/kg, day 10 post 1st dose, 20 mg/kg", "result": "161.6 mm3 and 137.16 mm3 and 145.85 mm3 and 274.94 mm3 and 275.52 mm3"}, {"measurement": "TVol, individual mouse", "setting": "SW48 xenografts; HRO761 20mg/kg, day 31 post 1st dose, 20 mg/kg", "result": "271.88 mm3 and 215.2 mm3 and 305.14 mm3 and 328.19 mm3 and 465.72 mm3"}, {"measurement": "TVol, individual mouse", "setting": "SW48 xenografts; HRO761 20mg/kg, day 35 post 1st dose, 20 mg/kg", "result": "291.72 mm3 and 241.46 mm3 and 425.25 mm3 and 407.95 mm3 and 536.46 mm3"}, {"measurement": "TVol, individual mouse", "setting": "SW48 xenografts; HRO761 20mg/kg, day 38 post 1st dose, 20 mg/kg", "result": "300.6 mm3 and 264.18 mm3 and 444.73 mm3 and 468.87 mm3 and 715.39 mm3"}, {"measurement": "TVol, individual mouse", "setting": "SW48 xenografts; HRO761 20mg/kg, day 42 post 1st dose, 20 mg/kg", "result": "368.6 mm3 and 392.16 mm3 and 674.98 mm3 and 716.64 mm3 and 982.57 mm3"}, {"measurement": "TVol, individual mouse", "setting": "SW48 xenografts; HRO761 20mg/kg, day 45 post 1st dose, 20 mg/kg", "result": "371.24 mm3 and 385.6 mm3 and 783.12 mm3 and 843.85 mm3 and 911.15 mm3"}, {"measurement": "TVol, individual mouse", "setting": "SW48 xenografts; HRO761 40mg/kg, day 0 post 1st dose, 40 mg/kg", "result": "200.29 mm3 and 110.04 mm3 and 161.38 mm3 and 114.46 mm3 and 156.76 mm3"}, {"measurement": "TVol, individual mouse", "setting": "SW48 xenografts; HRO761 40mg/kg, day 3 post 1st dose, 40 mg/kg", "result": "220.72 mm3 and 133.24 mm3 and 168.6 mm3 and 128.25 mm3 and 160.45 mm3"}, {"measurement": "TVol, individual mouse", "setting": "SW48 xenografts; HRO761 40mg/kg, day 7 post 1st dose, 40 mg/kg", "result": "301.07 mm3 and 120.77 mm3 and 173.59 mm3 and 120.92 mm3 and 189.14 mm3"}, {"measurement": "TVol, individual mouse", "setting": "SW48 xenografts; HRO761 40mg/kg, day 10 post 1st dose, 40 mg/kg", "result": "217.52 mm3 and 71.6 mm3 and 151.81 mm3 and 127.22 mm3 and 165.14 mm3"}, {"measurement": "TVol, individual mouse", "setting": "SW48 xenografts; HRO761 40mg/kg, day 31 post 1st dose, 40 mg/kg", "result": "36.14 mm3 and 32.93 mm3 and 32.1 mm3 and 36.62 mm3 and 48.39 mm3"}, {"measurement": "TVol, individual mouse", "setting": "SW48 xenografts; HRO761 40mg/kg, day 35 post 1st dose, 40 mg/kg", "result": "18.7 mm3 and 35.1 mm3 and 35.82 mm3 and 29.2 mm3 and 45.59 mm3"}, {"measurement": "TVol, individual mouse", "setting": "SW48 xenografts; HRO761 40mg/kg, day 38 post 1st dose, 40 mg/kg", "result": "18.57 mm3 and 44.23 mm3 and 32.27 mm3 and 29.68 mm3 and 41.76 mm3"}, {"measurement": "TVol, individual mouse", "setting": "SW48 xenografts; HRO761 40mg/kg, day 42 post 1st dose, 40 mg/kg", "result": "17.27 mm3 and 43.27 mm3 and 33.51 mm3 and 32.53 mm3 and 57.9 mm3"}, {"measurement": "TVol, individual mouse", "setting": "SW48 xenografts; HRO761 40mg/kg, day 45 post 1st dose, 40 mg/kg", "result": "17.95 mm3 and 55.4 mm3 and 29.6 mm3 and 29.3 mm3 and 41.69 mm3"}, {"measurement": "TVol, individual mouse", "setting": "SW48 xenografts; HRO761 40mg/kg, day 49 post 1st dose, 40 mg/kg", "result": "14.31 mm3 and 73.48 mm3 and 28.77 mm3 and 23.48 mm3 and 46.33 mm3"}, {"measurement": "TVol, individual mouse", "setting": "SW48 xenografts; HRO761 40mg/kg, day 52 post 1st dose, 40 mg/kg", "result": "13.49 mm3 and 67.12 mm3 and 35.7 mm3 and 19.69 mm3 and 42.88 mm3"}, {"measurement": "TVol, individual mouse", "setting": "SW48 xenografts; HRO761 40mg/kg, day 56 post 1st dose, 40 mg/kg", "result": "4.93 mm3 and 64.82 mm3 and 41.63 mm3 and 35.01 mm3 and 85.69 mm3"}, {"measurement": "TVol, individual mouse", "setting": "SW48 xenografts; HRO761 40mg/kg, day 59 post 1st dose, 40 mg/kg", "result": "15.84 mm3 and 71.64 mm3 and 53.36 mm3 and 40.6 mm3 and 98.1 mm3"}, {"measurement": "TVol, individual mouse", "setting": "SW48 xenografts; HRO761 40mg/kg, day 63 post 1st dose, 40 mg/kg", "result": "8.78 mm3 and 134.59 mm3 and 55.54 mm3 and 38.79 mm3 and 149.74 mm3"}, {"measurement": "TVol, individual mouse", "setting": "SW48 xenografts; HRO761 40mg/kg, day 66 post 1st dose, 40 mg/kg", "result": "7.59 mm3 and 146.67 mm3 and 66.42 mm3 and 41.7 mm3 and 161.69 mm3"}, {"measurement": "TVol, individual mouse", "setting": "SW48 xenografts; HRO761 40mg/kg, day 70 post 1st dose, 40 mg/kg", "result": "7.7 mm3 and 179.07 mm3 and 96.05 mm3 and 56.04 mm3 and 186.46 mm3"}, {"measurement": "TVol, individual mouse", "setting": "SW48 xenografts; HRO761 40mg/kg, day 73 post 1st dose, 40 mg/kg", "result": "11.2 mm3 and 180.6 mm3 and 110.85 mm3 and 54.64 mm3 and 234.87 mm3"}, {"measurement": "TVol, individual mouse", "setting": "SW48 xenografts; HRO761 40mg/kg, day 76 post 1st dose, 40 mg/kg", "result": "9.42 mm3 and 220.94 mm3 and 148.46 mm3 and 51.2 mm3 and 265.63 mm3"}, {"measurement": "TVol, individual mouse", "setting": "SW48 xenografts; HRO761 40mg/kg, day 79 post 1st dose, 40 mg/kg", "result": "9.85 mm3 and 268.86 mm3 and 198.08 mm3 and 73.28 mm3 and 373.46 mm3"}, {"measurement": "TVol, individual mouse", "setting": "SW48 xenografts; HRO761 40mg/kg, day 83 post 1st dose, 40 mg/kg", "result": "11.67 mm3 and 324.63 mm3 and 209.08 mm3 and 84.28 mm3 and 447.19 mm3"}, {"measurement": "TVol, individual mouse", "setting": "SW48 xenografts; HRO761 40mg/kg, day 86 post 1st dose, 40 mg/kg", "result": "12.85 mm3 and 494.2 mm3 and 228.92 mm3 and 87.95 mm3 and 483.08 mm3"}, {"measurement": "TVol, individual mouse", "setting": "SW48 xenografts; HRO761 40mg/kg, day 90 post 1st dose, 40 mg/kg", "result": "15.57 mm3 and 596.3 mm3 and 289.97 mm3 and 105.44 mm3 and 637.89 mm3"}, {"measurement": "TVol, individual mouse", "setting": "SW48 xenografts; HRO761 40mg/kg, day 92 post 1st dose, 40 mg/kg", "result": "13.53 mm3 and 633.18 mm3 and 267.13 mm3 and 107.38 mm3 and 649.51 mm3"}, {"measurement": "TVol, individual mouse", "setting": "SW48 xenografts; HRO761 60mg/kg, day 0 post 1st dose, 60 mg/kg", "result": "142.46 mm3 and 137.81 mm3 and 95.26 mm3 and 221.73 mm3 and 145.7 mm3"}, {"measurement": "TVol, individual mouse", "setting": "SW48 xenografts; HRO761 60mg/kg, day 3 post 1st dose, 60 mg/kg", "result": "194.8 mm3 and 181.61 mm3 and 92.95 mm3 and 290.26 mm3 and 162.3 mm3"}, {"measurement": "TVol, individual mouse", "setting": "SW48 xenografts; HRO761 60mg/kg, day 7 post 1st dose, 60 mg/kg", "result": "182.62 mm3 and 152.01 mm3 and 74.39 mm3 and 288.37 mm3 and 144.35 mm3"}, {"measurement": "TVol, individual mouse", "setting": "SW48 xenografts; HRO761 60mg/kg, day 10 post 1st dose, 60 mg/kg", "result": "137 mm3 and 131.04 mm3 and 71.66 mm3 and 201.61 mm3 and 154.78 mm3"}, {"measurement": "TVol, individual mouse", "setting": "SW48 xenografts; HRO761 60mg/kg, day 31 post 1st dose, 60 mg/kg", "result": "48.86 mm3 and 40.06 mm3 and 18.15 mm3 and 42.15 mm3 and 40.04 mm3"}]}
